PubChem BioAssay AID602196 – INSERM – 2012
The deposit covers about 23,000 reagents; shown is an unselected part. 455 of them (2%) count as active. 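Active includes both protection and sensitisation; some change values fall well beyond the stated -50 to +50 range.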 Not all columns of the deposit are shown. No sequences are given here. Not stated in the record: the amount of reagent.

Test: 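Modifiers of cisplatin sensitivity in A549 cells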
Cells: human A549 lung cancer cells
Reagents: siRNA pair against human genes
Time to read-out: 48 h transfection before cisplatin; time from cisplatin to read-out not stated
Treatment: cisplatin at a dose killing half of control-siRNA cells; exact dose and duration not given
Detection: 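Shift in cisplatin death relative to control siRNA, from -50 (all cells die) to +50 (no cells die); siRNAs harmful on their own scored 0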
Direction: two-siRNA summed score (-2 to +2): higher = both siRNAs protect from cisplatin killing; -2 means both sensitise
Call rule: 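Each siRNA scores 0 if harmful alone by LDH or WST-1, otherwise +1 if it reduces and -1 if it increases cisplatin killing; a gene is active when both siRNAs agree (sum +2 or -2)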
Calls: active = both siRNAs shift cisplatin killing the same way; inactive = no consistent shift, or siRNA harmful alone

LOC390688 | two-siRNA summed score (-2 to +2) = 0; outcome = inactive
TDRD6 | two-siRNA summed score (-2 to +2) = 1; outcome = inactive
OARD1 | two-siRNA summed score (-2 to +2) = 1; outcome = inactive
NDRG4 | two-siRNA summed score (-2 to +2) = 0; outcome = inactive
LOC285248 | two-siRNA summed score (-2 to +2) = 1; outcome = inactive
ZHX2 | two-siRNA summed score (-2 to +2) = 0; outcome = inactive
UBE4A | two-siRNA summed score (-2 to +2) = 0; outcome = inactive
LOC441885 | two-siRNA summed score (-2 to +2) = -1; outcome = inactive
BARHL1 | two-siRNA summed score (-2 to +2) = 0; outcome = inactive
LOC440023 | two-siRNA summed score (-2 to +2) = 1; outcome = inactive
WRAP53 | two-siRNA summed score (-2 to +2) = -1; outcome = inactive
LOC200312 | two-siRNA summed score (-2 to +2) = 0; outcome = inactive
RBM47 | two-siRNA summed score (-2 to +2) = 0; outcome = inactive
OR11H6 | two-siRNA summed score (-2 to +2) = 0; outcome = inactive
MRPL43 | two-siRNA summed score (-2 to +2) = 2; outcome = active
SLC26A5 | two-siRNA summed score (-2 to +2) = 0; outcome = inactive
PKN2 | two-siRNA summed score (-2 to +2) = -2; outcome = active
INPPL1 | two-siRNA summed score (-2 to +2) = 0; outcome = inactive
LOC440737 | two-siRNA summed score (-2 to +2) = 0; outcome = inactive
CLXN | two-siRNA summed score (-2 to +2) = 0; outcome = inactive
TELO2 | two-siRNA summed score (-2 to +2) = -1; outcome = inactive
LOC401113 | two-siRNA summed score (-2 to +2) = 0; outcome = inactive
GSX1 | two-siRNA summed score (-2 to +2) = 0; outcome = inactive
CLIP3 | two-siRNA summed score (-2 to +2) = 0; outcome = inactive
INIP | two-siRNA summed score (-2 to +2) = 0; outcome = inactive
LOC440104 | two-siRNA summed score (-2 to +2) = 1; outcome = inactive
OR1G1 | two-siRNA summed score (-2 to +2) = 0; outcome = inactive
UCP3 | two-siRNA summed score (-2 to +2) = 0; outcome = inactive
COL6A5 | two-siRNA summed score (-2 to +2) = 1; outcome = inactive
SAP130 | two-siRNA summed score (-2 to +2) = 0; outcome = inactive
RBPMS2 | two-siRNA summed score (-2 to +2) = 0; outcome = inactive

2 entries already listed, ordered by “two-siRNA summed score (-2 to +2)”, highest first.
COL6A5 | two-siRNA summed score (-2 to +2) = 1; outcome = inactive
UCP3 | two-siRNA summed score (-2 to +2) = 0; outcome = inactive
